Reference: PubChem BioAssay AID1224829 (NIAID, 2016)
The deposit covers about 3,800 reagents; shown is a random part of them. 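Calls cover raised and lowered translocation; gene median uses one vendor's three siRNAs; qiagen siRNAs acted more weakly than ambion siRNAs.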 Unmarked entries are inactive. The numbers tell different reagents against one gene apart.

Purpose: 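Secondary check of hits that alter LPS-induced p65 translocation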 (follow-up of hits)
System: mouse RAW264.7 G9 macrophage reporter cells
Reagents: single siRNA against mouse genes, 100 nM
Timing: 2 days of siRNA knock-down, then 40 min of LPS before fixing
Challenge: LPS (Salmonella minnesota R595) at 10 ng/ml
Measurement: 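High-content images after 40 min LPS exposure; GFP-p65 nucleus to surrounding ring signal ratio, normalised to plate median and non-targeting control wells, expressed as z-score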
Reading the numbers: p65 translocation z-score and gene median z-score, per vendor: higher = more nuclear NF-kappaB p65 after LPS
Rule for the call: 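An siRNA is called active when the mean z-score of its two replicates is above 2 or below -2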
Calls: active = changed p65 translocation (either direction); inactive = no clear change

| gene knocked down | reagent | siRNA vendor or control pool | p65 translocation z-score, replicate mean | p65 translocation z-score, replicate 1 | p65 translocation z-score, replicate 2 | gene median z-score, per vendor |
| --- | --- | --- | --- | --- | --- | --- |
| Psma3 | 1 | ambion single siRNA | 2.78 (active) | 3.78 | 1.77 | -1.78 |
| Psma3 | 2 | ambion single siRNA | -1.78 | -3.23 | -0.317 | -1.78 |
| Psma3 | 3 | ambion single siRNA | -4.05 (active) | -4.7 | -3.4 | -1.78 |
| Fau | 1 | ambion single siRNA | -0.309 | 1.02 | -1.63 | -1.63 |
| Fau | 2 | ambion single siRNA | -3.46 (active) | -2.92 | -3.99 | -1.63 |
| Fau | 3 | ambion single siRNA | 0.0793 | 0.0793 | – | -1.63 |
| Fau | 4 | qiagen single siRNA | -3.41 (active) | -3.7 | -3.12 | -1.31 |
| Fau | 5 | qiagen single siRNA | 0.546 | -0.194 | 1.29 | -1.31 |
| Fau | 6 | qiagen single siRNA | -1.31 | -0.537 | -2.08 | -1.31 |
| Slc10a4 | 1 | ambion single siRNA | -1.08 | -0.728 | -1.43 | -0.558 |
| Slc10a4 | 2 | ambion single siRNA | 0.935 | 2.65 | -0.785 | -0.558 |
| Slc10a4 | 3 | ambion single siRNA | -0.0389 | -0.387 | 0.309 | -0.558 |
| Slc10a4 | 4 | qiagen single siRNA | 1.75 | -0.588 | 4.09 | -0.47 |
| Slc10a4 | 5 | qiagen single siRNA | -0.0525 | 0.246 | -0.351 | -0.47 |
| Slc10a4 | 6 | qiagen single siRNA | -1.2 | -1.6 | -0.796 | -0.47 |
| Dync1i2 | 1 | ambion single siRNA | 0.339 | 0.189 | 0.489 | 0.189 |
| Dync1i2 | 2 | ambion single siRNA | -0.599 | 0.222 | -1.42 | 0.189 |
| Dync1i2 | 3 | ambion single siRNA | -3.68 (active) | -3.68 | – | 0.189 |
| Dync1i2 | 4 | qiagen single siRNA | -1.63 | -1.83 | -1.44 | -1.66 |
| Dync1i2 | 5 | qiagen single siRNA | -4.13 (active) | -6.59 | -1.66 | -1.66 |
| Dync1i2 | 6 | qiagen single siRNA | -0.27 | -0.27 | – | -1.66 |
| Fbh1 | 1 | ambion single siRNA | -3.31 (active) | -6.66 | 0.0314 | -1.24 |
| Fbh1 | 2 | ambion single siRNA | 0.914 | 2.49 | -0.657 | -1.24 |
| Fbh1 | 3 | ambion single siRNA | -2.46 (active) | -3.1 | -1.82 | -1.24 |
| Fbh1 | 4 | qiagen single siRNA | 1.32 | 1.23 | 1.41 | -0.685 |
| Fbh1 | 5 | qiagen single siRNA | -1.07 | -1.46 | -0.685 | -0.685 |
| Fbh1 | 6 | qiagen single siRNA | -3.1 (active) | -3.1 | – | -0.685 |
| Krt8 | 1 | ambion single siRNA | -0.602 | -1.13 | -0.0763 | -1.57 |
| Krt8 | 2 | ambion single siRNA | -4.67 (active) | -7.33 | -2.01 | -1.57 |
| Krt8 | 3 | ambion single siRNA | – | – | – | -1.57 |
| Krt8 | 4 | qiagen single siRNA | -1.06 | -0.522 | -1.6 | -0.439 |
| Krt8 | 5 | qiagen single siRNA | 0.0819 | 1.29 | -1.13 | -0.439 |
| Krt8 | 6 | qiagen single siRNA | -0.185 | -0.0142 | -0.356 | -0.439 |
| Mrpl33 | 1 | ambion single siRNA | 0.257 | -0.752 | 1.27 | -1.43 |
| Mrpl33 | 2 | ambion single siRNA | -1.43 | -0.896 | -1.97 | -1.43 |
| Mrpl33 | 3 | ambion single siRNA | -7.25 (active) | -7.96 | -6.54 | -1.43 |
| Mrpl33 | 4 | qiagen single siRNA | 1.83 | 1.17 | 2.49 | 0.38 |
| Mrpl33 | 5 | qiagen single siRNA | -0.146 | -1.86 | 1.57 | 0.38 |
| Mrpl33 | 6 | qiagen single siRNA | -0.88 | -1.35 | -0.411 | 0.38 |
| Cdh6 | 1 | ambion single siRNA | -0.819 | -0.797 | -0.84 | -1.58 |
| Cdh6 | 2 | ambion single siRNA | -2.07 (active) | -1.83 | -2.31 | -1.58 |
| Cdh6 | 3 | ambion single siRNA | -2 | -2.67 | -1.32 | -1.58 |
| Serpinb6c | 1 | ambion single siRNA | 2.49 (active) | 3.68 | 1.31 | -4.37 |
| Serpinb6c | 2 | ambion single siRNA | -6.01 (active) | -7.1 | -4.92 | -4.37 |
| Serpinb6c | 3 | ambion single siRNA | -4.73 (active) | -3.83 | -5.63 | -4.37 |
| Serpinb6c | 4 | qiagen single siRNA | -0.735 | -0.835 | -0.636 | -0.735 |
| Serpinb6c | 5 | qiagen single siRNA | 1.47 | 1.61 | 1.32 | -0.735 |
| Serpinb6c | 6 | qiagen single siRNA | -4.63 (active) | -5.47 | -3.78 | -0.735 |
| Zfp935 | 1 | ambion single siRNA | -2.12 (active) | -1.18 | -3.06 | -3.06 |
| Zfp935 | 2 | ambion single siRNA | -4.82 (active) | -4.82 | – | -3.06 |
| Zfp935 | 3 | ambion single siRNA | -3.2 (active) | -1.44 | -4.96 | -3.06 |
| Zfp935 | 4 | qiagen single siRNA | -1.97 | -3.16 | -0.782 | -0.282 |
| Zfp935 | 5 | qiagen single siRNA | -1.36 | -2.94 | 0.219 | -0.282 |
| Zfp935 | 6 | qiagen single siRNA | 0.607 | 0.25 | 0.963 | -0.282 |

3 of these entries, reformatted.
{"gene knocked down": "Fau", "reagent": 3, "siRNA vendor or control pool": "ambion single siRNA", "p65 translocation z-score, replicate mean": 0.0793, "p65 translocation z-score, replicate 1": 0.0793, "gene median z-score, per vendor": -1.63}
{"gene knocked down": "Fau", "reagent": 4, "siRNA vendor or control pool": "qiagen single siRNA", "p65 translocation z-score, replicate mean": "-3.41 (active)", "p65 translocation z-score, replicate 1": -3.7, "p65 translocation z-score, replicate 2": -3.12, "gene median z-score, per vendor": -1.31}
{"gene knocked down": "Fau", "reagent": 5, "siRNA vendor or control pool": "qiagen single siRNA", "p65 translocation z-score, replicate mean": 0.546, "p65 translocation z-score, replicate 1": -0.194, "p65 translocation z-score, replicate 2": 1.29, "gene median z-score, per vendor": -1.31}
